The comparison behind a weaker result is the experiment's own reference, which may not be listed here. Protein sequences can lack the tags named with them.
Target: T1, carcinoembryonic antigen (CEA) (human) (UniProt P06731)
T1 sequence (looked up, limits assumed): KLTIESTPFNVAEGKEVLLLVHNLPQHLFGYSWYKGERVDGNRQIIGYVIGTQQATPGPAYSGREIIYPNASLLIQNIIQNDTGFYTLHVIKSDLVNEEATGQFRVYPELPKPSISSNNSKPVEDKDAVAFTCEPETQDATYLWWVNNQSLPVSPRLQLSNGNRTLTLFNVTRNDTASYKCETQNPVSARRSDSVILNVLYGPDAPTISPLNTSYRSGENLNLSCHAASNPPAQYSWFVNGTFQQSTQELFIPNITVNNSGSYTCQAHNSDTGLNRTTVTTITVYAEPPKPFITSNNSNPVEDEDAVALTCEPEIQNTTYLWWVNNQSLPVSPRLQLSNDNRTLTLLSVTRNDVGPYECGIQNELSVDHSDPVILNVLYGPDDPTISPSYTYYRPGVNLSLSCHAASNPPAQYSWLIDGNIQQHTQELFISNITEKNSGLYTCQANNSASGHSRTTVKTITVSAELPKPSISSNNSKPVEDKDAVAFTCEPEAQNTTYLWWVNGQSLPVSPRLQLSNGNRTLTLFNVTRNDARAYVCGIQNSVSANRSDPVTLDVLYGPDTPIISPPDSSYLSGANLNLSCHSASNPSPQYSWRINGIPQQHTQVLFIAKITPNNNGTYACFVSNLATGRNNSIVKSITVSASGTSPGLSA
Assay: colorimetric antibody-aptamer sandwich assay
Settings: MOF-grafted single strand 25 ug/mL, CEA 20 ng/mL, lower signal than CEAapt-TDN-MOF; 5' phosphate; Colorimetric sandwich assay: TMB 2 mM, H2O2 0.2 M, detection time 20 min; binding buffer; commercial protein; single-stranded DNA

Sequence: TTTTTTTATACCAGCTTATTCAA [CEAapt strand J on PCN-222(Fe) MOF]
- binding result: binds more weakly
